PubChem BioAssay AID1671195 | Yale University, 2021

Purpose: 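Genes whose knockdown alters LDL uptake in liver cancer cells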 (primary screen)
Cells: human Huh7 hepatoma cells
Reagent: siRNA pool against human genes, 18 nM
Timing: about 2 to 2.5 days of knockdown, then 8 h LDL uptake
Challenge: DiI-labelled LDL at 30 µg/ml for 8 h, in lipoprotein-deficient serum medium
Measured: 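Fluorescent LDL signal imaged in cells, scaled to the plate median, robust z-score for each replicate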
Scale: robust z-score: higher = more LDL uptake after knockdown
Hit rule: 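a gene counts as active if at least two replicate z-scores exceed ±2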
Here is an unselected part of about 22,000 reagents. About 1,510 of all reagents (6.9%) count as active. 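Active includes knockdowns raising or lowering LDL uptake; positive z-scores mean more uptake, negative mean less.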 The numbers tell different reagents against one gene apart.

target gene	pool no.	robust z-score, replicate 1	robust z-score, replicate 2	robust z-score, replicate 3	Call
MMD (monocyte to macrophage differentiation associated)	1	1.09	1.39	1.1	inactive
HCFC1R1 (host cell factor C1 regulator 1)	1	0.649	0.997	0.246	inactive
KLF11 (KLF transcription factor 11)	1	-0.859	-0.574	-0.61	inactive
PIN4 (peptidylprolyl cis/trans isomerase, NIMA-interacting 4)	1	-0.51	-0.74	-0.479	inactive
LINC03019 (long independently transcribed non-coding RNA 3019)	1	-0.825	-0.994	-1.05	inactive
PGBD2 (piggyBac transposable element derived 2)	1	-1.17	-1.08	-1.07	inactive
CALML5 (calmodulin like 5)	1	0.586	1.13	1.39	inactive
STMND1 (stathmin domain containing 1)	1	-0.496	-0.0116	-0.394	inactive
LOC389085 (retired record)	1	0.0521	0.19	0.38	inactive
SLC38A5	1	1.03	0.555	0.469	inactive
CXorf65 (chromosome X open reading frame 65)	1	-1.08	-0.928	-0.889	inactive
SHISA4 (shisa family member 4)	1	-1.18	-0.605	-1.31	inactive
PEX14 (peroxisomal biogenesis factor 14)	1	-0.553	0.0708	-0.117	inactive
BMI1 (BMI1 proto-oncogene, polycomb ring finger)	1	-2	-1.79	-1.72	inactive
GLS (glutaminase)	1	-0.937	-0.741	-0.822	inactive
ST13P2 (ST13, Hsp70 interacting protein pseudogene 2)	1	-0.888	-0.98	-0.649	inactive
REEP4 (receptor accessory protein 4)	1	1.82	1.67	0.922	inactive
LOC441041 (retired record)	1	0.879	0.187	0.038	inactive
FKBP2 (FKBP prolyl isomerase 2)	1	-0.439	-0.246	-0.388	inactive
SEPTIN1 (septin 1)	1	0.0338	0.691	0.904	inactive
ANKRD18B (ankyrin repeat domain 18B)	1	1.14	0.284	0.488	inactive
MCAT	1	0.377	-0.154	-0.316	inactive
OR5B21 (olfactory receptor family 5 subfamily B member 21)	1	3.9	4.01	3.7	active
MED8 (mediator complex subunit 8)	1	0.0549	-0.32	0.0423	inactive
COX4I1 (cytochrome c oxidase subunit 4I1)	1	0.663	1.3	0.0275	inactive
TYMSOS (TYMS opposite strand RNA)	1	0.67	1.18	0.824	inactive
TRIM2 (tripartite motif containing 2)	1	-0.327	-0.975	0.0217	inactive
BEST4 (bestrophin 4)	1	0.284	0.414	0.496	inactive
LOC388388 (retired record)	1	-0.955	-0.806	-0.998	inactive
BPIFB3 (BPI fold containing family B member 3)	1	6.48	5.15	4.36	active
FAM3C (FAM3 metabolism regulating signaling molecule C)	1	0.454	-0.00111	1.45	inactive
LOC401599 (retired record)	1	-0.752	-0.402	-1.33	inactive
LOC440895 (two pore channel 3 pseudogene)	1	-1.88	-2.05	-2.03	active
LOC440895 (two pore channel 3 pseudogene)	2	-1.69	-0.722	-0.814	inactive
PSG8 (pregnancy specific beta-1-glycoprotein 8)	1	-1.28	-1.8	-1.55	inactive
DPM3 (dolichyl-phosphate mannosyltransferase subunit 3, regulatory)	1	-1.27	-1.99	-1.22	inactive
NME8 (NME/NM23 family member 8)	1	-0.155	-0.861	-0.177	inactive
RLF (RLF zinc finger)	1	0.0305	-0.747	0.729	inactive
OXER1 (oxoeicosanoid receptor 1)	1	-0.811	-0.701	-0.783	inactive
NGFR (nerve growth factor receptor)	1	0.6	1.17	0.852	inactive
JAK1 (Janus kinase 1)	1	-2.02	-1.83	-1.88	inactive
PTPRC (protein tyrosine phosphatase receptor type C)	1	-0.467	-0.376	-0.689	inactive
IL24 (interleukin 24)	1	-1.16	-1.16	-1.1	inactive
FUT5 (fucosyltransferase 5)	1	-1.16	-0.76	-0.46	inactive
TBC1D14 (TBC1 domain family member 14)	1	0.0454	0.682	1.44	inactive
GNB1L (G protein subunit beta 1 like)	1	-0.133	0.419	0.189	inactive
NAGS (N-acetylglutamate synthase)	1	0.417	0.729	0.849	inactive
FRMD6-AS1 (FRMD6 antisense RNA 1)	1	0.985	0.653	0.259	inactive
ZNF277 (zinc finger protein 277)	1	-1.32	-2.19	-1.39	inactive
ASTL (astacin like metalloendopeptidase)	1	-0.629	-1.09	-0.945	inactive
MAP1LC3B (microtubule associated protein 1 light chain 3 beta)	1	-0.247	-0.135	-0.583	inactive
STAB1 (stabilin 1)	1	0.316	-0.321	-0.164	inactive
EPB41L2 (erythrocyte membrane protein band 4.1 like 2)	1	-0.985	0.0956	-0.346	inactive
DUSP19 (dual specificity phosphatase 19)	1	0.149	0.668	0.118	inactive
KIF18A (kinesin family member 18A)	1	-0.289	-0.0637	-0.153	inactive
ZNF124 (zinc finger protein 124)	1	0.0527	-0.402	-0.00369	inactive
KIR2DS4	1	-1.75	-0.323	-1.53	inactive
DYNLRB1 (dynein light chain roadblock-type 1)	1	-0.831	-0.0966	-0.329	inactive
ABHD6 (abhydrolase domain containing 6, acylglycerol lipase)	1	-0.492	-0.967	-0.809	inactive
PIK3C2A	1	-0.749	0.104	-0.79	inactive
COL21A1 (collagen type XXI alpha 1 chain)	1	-0.158	0.199	0.192	inactive
BALR6 (B-cell acute lymphoblastic leukemia associated long RNA 6)	1	-0.0965	0.164	-0.272	inactive
TEX14 (testis expressed 14, intercellular bridge forming factor)	1	-0.974	-0.866	-0.977	inactive
TRIM53CP (tripartite motif containing 53C, pseudogene)	1	0.393	-0.193	-0.0784	inactive
ACTL8 (actin like 8)	1	0.399	0.462	-0.285	inactive
VIL1 (villin 1)	1	-0.44	-1.54	0.763	inactive
SIRT2 (sirtuin 2)	1	0.543	1.24	-0.511	inactive
HORMAD2 (HORMA domain containing 2)	1	-1.33	-2.08	-1.16	inactive

Ordered by “robust z-score, replicate 2” (descending): 9 of the entries above
target gene	pool no.	robust z-score, replicate 1	robust z-score, replicate 2	robust z-score, replicate 3	Call
CALML5 (calmodulin like 5)	1	0.586	1.13	1.39	inactive
SLC38A5	1	1.03	0.555	0.469	inactive
LOC389085 (retired record)	1	0.0521	0.19	0.38	inactive
STMND1 (stathmin domain containing 1)	1	-0.496	-0.0116	-0.394	inactive
SHISA4 (shisa family member 4)	1	-1.18	-0.605	-1.31	inactive
PIN4 (peptidylprolyl cis/trans isomerase, NIMA-interacting 4)	1	-0.51	-0.74	-0.479	inactive
CXorf65 (chromosome X open reading frame 65)	1	-1.08	-0.928	-0.889	inactive
LINC03019 (long independently transcribed non-coding RNA 3019)	1	-0.825	-0.994	-1.05	inactive
PGBD2 (piggyBac transposable element derived 2)	1	-1.17	-1.08	-1.07	inactive
